Results taken from the supplement of paper PMC10849652.
This is one part of the list.

Protein sequences, listed by entry. Tags and fused reporters are not part of them. Lines headed by an entry give the natural chain unless they say otherwise; changes in a name come on top.
UniProt P52429: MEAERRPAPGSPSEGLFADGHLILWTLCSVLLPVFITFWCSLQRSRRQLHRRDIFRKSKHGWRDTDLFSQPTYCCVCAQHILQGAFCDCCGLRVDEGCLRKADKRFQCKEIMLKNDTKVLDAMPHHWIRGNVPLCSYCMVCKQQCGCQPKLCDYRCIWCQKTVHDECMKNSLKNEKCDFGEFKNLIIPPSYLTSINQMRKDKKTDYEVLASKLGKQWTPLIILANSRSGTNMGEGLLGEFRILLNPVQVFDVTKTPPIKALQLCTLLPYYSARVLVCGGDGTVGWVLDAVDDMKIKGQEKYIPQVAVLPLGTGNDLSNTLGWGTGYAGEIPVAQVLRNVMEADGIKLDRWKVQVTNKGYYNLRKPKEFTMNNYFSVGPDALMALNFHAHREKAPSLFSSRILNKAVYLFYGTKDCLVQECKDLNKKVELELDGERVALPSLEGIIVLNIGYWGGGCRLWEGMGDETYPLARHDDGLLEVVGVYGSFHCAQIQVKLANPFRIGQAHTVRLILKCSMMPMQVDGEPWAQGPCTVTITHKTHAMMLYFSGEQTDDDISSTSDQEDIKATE
UniProt P0CG22: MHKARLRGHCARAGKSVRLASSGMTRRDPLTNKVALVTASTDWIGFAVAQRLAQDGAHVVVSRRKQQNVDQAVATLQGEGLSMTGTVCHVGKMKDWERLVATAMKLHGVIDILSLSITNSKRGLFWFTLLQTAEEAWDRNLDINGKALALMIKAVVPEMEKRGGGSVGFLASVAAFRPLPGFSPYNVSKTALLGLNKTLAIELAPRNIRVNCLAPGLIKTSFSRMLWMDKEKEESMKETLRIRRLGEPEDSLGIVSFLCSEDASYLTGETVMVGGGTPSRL
UniProt Q8IYB7: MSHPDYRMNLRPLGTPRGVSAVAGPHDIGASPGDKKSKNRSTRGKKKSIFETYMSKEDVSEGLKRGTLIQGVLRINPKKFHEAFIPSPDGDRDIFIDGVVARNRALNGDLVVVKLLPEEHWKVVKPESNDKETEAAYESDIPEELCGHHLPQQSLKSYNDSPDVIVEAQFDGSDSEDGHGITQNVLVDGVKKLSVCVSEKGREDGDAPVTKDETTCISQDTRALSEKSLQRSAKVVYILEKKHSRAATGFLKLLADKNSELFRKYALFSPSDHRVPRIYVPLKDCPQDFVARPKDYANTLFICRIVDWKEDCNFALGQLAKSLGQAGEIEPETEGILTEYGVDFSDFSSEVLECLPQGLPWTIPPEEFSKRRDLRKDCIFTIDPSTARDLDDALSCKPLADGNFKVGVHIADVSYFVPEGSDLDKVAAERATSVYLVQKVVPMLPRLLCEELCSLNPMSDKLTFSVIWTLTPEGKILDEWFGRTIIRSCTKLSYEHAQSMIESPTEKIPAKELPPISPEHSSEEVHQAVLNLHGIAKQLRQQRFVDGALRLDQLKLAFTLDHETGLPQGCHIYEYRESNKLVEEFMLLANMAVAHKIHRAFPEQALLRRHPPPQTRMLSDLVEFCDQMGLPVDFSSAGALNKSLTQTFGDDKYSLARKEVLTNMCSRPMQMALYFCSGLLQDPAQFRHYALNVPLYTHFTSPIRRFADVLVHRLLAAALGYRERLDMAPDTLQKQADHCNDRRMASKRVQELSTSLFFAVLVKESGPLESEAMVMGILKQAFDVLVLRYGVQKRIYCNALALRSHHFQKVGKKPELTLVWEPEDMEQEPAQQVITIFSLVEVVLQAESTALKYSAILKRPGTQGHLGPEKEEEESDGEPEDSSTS
UniProt Q8IXB1: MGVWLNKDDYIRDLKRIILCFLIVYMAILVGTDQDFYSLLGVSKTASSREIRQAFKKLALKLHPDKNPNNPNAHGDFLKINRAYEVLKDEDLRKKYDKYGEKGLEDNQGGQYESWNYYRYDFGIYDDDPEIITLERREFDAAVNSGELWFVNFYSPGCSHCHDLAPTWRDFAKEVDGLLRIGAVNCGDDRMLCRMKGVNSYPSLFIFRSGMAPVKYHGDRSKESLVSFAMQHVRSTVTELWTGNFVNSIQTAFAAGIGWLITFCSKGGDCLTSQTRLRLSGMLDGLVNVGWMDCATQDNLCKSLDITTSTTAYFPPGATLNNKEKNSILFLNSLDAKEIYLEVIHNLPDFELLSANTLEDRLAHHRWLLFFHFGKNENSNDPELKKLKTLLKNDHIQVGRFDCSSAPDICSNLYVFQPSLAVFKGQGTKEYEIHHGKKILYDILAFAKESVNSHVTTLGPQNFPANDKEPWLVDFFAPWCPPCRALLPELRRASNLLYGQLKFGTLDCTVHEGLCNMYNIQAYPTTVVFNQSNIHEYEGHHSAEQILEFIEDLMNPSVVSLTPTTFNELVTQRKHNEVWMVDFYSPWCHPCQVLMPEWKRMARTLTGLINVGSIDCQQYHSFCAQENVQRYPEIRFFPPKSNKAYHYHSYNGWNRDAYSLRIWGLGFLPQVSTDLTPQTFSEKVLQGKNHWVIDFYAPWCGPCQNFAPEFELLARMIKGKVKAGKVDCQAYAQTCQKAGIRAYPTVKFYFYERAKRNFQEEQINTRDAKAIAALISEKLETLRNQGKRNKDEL
UniProt Q6ZR08: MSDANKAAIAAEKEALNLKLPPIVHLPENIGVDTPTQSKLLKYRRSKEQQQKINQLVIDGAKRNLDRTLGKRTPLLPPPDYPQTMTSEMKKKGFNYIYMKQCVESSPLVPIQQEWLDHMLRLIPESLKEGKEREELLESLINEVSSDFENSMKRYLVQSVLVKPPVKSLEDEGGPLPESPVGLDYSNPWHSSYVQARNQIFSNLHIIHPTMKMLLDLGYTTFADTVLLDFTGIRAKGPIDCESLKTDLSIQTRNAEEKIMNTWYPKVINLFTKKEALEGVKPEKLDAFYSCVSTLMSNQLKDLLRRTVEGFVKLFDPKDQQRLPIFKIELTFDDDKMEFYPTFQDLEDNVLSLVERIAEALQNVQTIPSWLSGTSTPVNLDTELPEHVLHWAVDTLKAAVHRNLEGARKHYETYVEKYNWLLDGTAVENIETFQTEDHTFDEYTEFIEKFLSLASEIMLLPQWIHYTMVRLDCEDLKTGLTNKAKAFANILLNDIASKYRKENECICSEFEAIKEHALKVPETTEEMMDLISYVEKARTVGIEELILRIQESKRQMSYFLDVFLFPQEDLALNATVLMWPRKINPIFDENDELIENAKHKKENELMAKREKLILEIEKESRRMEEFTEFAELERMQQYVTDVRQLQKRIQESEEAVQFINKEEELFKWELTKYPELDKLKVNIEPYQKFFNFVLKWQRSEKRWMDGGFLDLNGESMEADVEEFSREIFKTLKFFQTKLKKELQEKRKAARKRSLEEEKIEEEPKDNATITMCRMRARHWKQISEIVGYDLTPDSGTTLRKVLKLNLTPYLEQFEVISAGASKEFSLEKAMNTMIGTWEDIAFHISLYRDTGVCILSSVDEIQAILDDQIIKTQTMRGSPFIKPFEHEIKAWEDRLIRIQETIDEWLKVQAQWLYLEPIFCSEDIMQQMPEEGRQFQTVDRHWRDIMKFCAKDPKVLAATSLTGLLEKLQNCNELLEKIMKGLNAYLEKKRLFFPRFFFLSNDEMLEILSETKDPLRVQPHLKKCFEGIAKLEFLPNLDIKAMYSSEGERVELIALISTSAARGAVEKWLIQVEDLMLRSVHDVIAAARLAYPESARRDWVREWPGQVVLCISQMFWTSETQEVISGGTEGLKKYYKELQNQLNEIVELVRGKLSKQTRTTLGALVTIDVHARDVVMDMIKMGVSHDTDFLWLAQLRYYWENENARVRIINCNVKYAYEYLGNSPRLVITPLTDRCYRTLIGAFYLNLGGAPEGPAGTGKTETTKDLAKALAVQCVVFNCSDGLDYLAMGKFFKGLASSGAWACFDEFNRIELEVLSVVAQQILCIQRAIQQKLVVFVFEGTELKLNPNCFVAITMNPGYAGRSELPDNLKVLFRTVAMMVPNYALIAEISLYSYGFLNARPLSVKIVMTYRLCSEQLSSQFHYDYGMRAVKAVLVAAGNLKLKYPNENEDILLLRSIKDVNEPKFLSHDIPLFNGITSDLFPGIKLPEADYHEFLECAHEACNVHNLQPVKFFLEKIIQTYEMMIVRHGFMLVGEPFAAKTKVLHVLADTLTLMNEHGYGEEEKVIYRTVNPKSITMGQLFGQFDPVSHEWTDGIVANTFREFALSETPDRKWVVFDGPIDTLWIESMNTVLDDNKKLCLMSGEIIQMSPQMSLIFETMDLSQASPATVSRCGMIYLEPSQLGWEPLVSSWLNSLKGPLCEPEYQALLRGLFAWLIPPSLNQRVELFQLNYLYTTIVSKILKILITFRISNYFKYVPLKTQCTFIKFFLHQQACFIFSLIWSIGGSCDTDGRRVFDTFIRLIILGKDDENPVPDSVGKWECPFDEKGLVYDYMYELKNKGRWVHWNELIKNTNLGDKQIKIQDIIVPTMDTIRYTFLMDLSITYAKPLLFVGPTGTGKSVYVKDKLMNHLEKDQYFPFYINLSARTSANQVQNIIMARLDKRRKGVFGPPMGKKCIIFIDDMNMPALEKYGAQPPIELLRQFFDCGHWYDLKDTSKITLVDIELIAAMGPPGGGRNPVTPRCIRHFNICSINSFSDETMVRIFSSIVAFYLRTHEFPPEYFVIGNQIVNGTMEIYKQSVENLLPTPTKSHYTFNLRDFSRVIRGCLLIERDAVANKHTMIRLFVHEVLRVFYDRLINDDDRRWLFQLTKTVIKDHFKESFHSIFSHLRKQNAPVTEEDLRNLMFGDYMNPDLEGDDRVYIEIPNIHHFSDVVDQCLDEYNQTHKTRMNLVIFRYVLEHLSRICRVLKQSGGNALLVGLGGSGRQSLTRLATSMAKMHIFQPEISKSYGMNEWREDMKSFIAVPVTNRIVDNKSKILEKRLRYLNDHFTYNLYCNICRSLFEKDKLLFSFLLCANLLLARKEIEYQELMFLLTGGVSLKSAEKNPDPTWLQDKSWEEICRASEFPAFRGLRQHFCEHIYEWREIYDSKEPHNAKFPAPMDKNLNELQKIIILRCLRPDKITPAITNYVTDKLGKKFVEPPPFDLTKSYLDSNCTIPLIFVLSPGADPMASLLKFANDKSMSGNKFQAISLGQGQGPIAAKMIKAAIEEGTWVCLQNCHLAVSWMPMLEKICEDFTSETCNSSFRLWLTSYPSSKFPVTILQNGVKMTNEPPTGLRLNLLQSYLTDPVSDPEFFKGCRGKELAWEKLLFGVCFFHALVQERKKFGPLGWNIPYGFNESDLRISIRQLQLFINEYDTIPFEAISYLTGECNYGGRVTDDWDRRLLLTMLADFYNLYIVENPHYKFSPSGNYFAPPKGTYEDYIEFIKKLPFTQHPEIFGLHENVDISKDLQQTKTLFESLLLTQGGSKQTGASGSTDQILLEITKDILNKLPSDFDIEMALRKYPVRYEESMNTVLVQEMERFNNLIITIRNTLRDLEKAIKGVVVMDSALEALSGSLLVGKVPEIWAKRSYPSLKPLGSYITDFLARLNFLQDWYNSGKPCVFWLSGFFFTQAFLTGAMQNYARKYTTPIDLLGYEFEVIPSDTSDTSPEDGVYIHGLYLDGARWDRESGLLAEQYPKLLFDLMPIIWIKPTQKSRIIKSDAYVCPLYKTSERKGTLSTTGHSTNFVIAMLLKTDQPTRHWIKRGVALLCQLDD
UniProt P52824: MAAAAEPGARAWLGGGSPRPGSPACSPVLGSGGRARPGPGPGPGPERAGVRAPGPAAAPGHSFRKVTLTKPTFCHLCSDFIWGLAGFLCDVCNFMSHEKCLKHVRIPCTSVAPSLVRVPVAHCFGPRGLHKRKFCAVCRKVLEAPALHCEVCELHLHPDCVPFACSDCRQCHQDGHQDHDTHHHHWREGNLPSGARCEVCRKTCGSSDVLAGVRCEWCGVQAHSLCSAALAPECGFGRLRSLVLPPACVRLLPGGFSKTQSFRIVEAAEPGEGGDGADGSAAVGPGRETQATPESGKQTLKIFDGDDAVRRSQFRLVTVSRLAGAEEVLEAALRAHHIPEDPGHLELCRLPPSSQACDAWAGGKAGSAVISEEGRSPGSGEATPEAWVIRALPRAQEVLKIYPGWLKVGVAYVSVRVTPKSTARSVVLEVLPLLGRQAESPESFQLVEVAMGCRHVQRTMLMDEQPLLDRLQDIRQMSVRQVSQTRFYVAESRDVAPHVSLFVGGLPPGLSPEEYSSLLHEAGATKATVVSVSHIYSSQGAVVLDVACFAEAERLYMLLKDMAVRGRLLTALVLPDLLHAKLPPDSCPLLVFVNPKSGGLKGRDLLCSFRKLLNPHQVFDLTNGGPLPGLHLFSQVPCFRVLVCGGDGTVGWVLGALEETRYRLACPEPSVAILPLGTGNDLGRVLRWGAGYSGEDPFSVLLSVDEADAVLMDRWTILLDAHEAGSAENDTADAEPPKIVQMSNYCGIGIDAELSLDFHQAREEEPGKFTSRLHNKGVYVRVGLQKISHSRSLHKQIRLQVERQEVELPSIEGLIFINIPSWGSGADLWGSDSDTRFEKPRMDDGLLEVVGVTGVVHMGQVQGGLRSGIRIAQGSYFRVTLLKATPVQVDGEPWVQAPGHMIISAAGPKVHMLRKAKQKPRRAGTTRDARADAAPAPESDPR

Tests used:
Test in all cases: log2 fold change, soluble protein after heating vs DMSO (PISA); higher = thermal stabilisation; K562 lysate, 10 uM; active = over 0.2 and 3.5 SD of the protein, either way, in both replicates (recomputed)
vemurafenib = compound: CCCS(=O)(=O)Nc1ccc(F)c(C(=O)c2c[nH]c3ncc(-c4ccc(Cl)cc4)cc23)c1F [vemurafenib]
How it was run: (§1)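 Following dounce homogenisation of K562 pellets in PBS pH 7.4 with 1 mM MgCl2, crude extract at 1 mg/mL protein was incubated for 30 min with 10 μM compound. Aliquots were then heated for 3 min over 48°C-58°C and pooled, NP-40 was added to 0.5% at 4°C, and soluble protein was recovered as the supernatant at 21,000xg for 90 min. Channel-sum-equalised TMTpro 16plex LC-MS/MS quantified this protein. Each value, from duplicates, is a log-two fold change in thermal stability relative to solvent controls.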

barasertib = compound: CCN(CCCOc1ccc2c(Nc3cc(CC(=O)Nc4cccc(F)c4)[nH]n3)ncnc2c1)CCOP(=O)(O)O [barasertib]
How it was run: as §1

[1] = compound: CC[C@@H]1C(=O)N(C)c2cnc(Nc3ccc(C(=O)NC4CCN(C)CC4)cc3OC)nc2N1C1CCCC1
How it was run: as §1

[2] = compound: CCn1c(C(=O)N(C2CC2)C2CC2)cc2c3c(ncn3C)c(Nc3cc(C)n(C)n3)nc21
How it was run: as §1

[3] = compound: CCn1cc(-c2ccnc3[nH]c(-c4cccc(CN(C)C)c4)cc23)c(-c2ccc(NC(=O)N(C)C)cc2)n1
How it was run: as §1

[4] = compound: CN1CCC(CNc2ccc3ncc(-c4cccc(OC(F)(F)F)c4)n3n2)CC1
How it was run: as §1

saracatinib = compound: CN1CCN(CCOc2cc(OC3CCOCC3)c3c(Nc4c(Cl)ccc5c4OCO5)ncnc3c2)CC1 [saracatinib]
How it was run: as §1

sotrastaurin = compound: CN1CCN(c2nc(C3=C(c4c[nH]c5ccccc45)C(=O)NC3=O)c3ccccc3n2)CC1 [sotrastaurin]
How it was run: as §1

alvocidib = compound: CN1CC[C@H](c2c(O)cc(O)c3c(=O)cc(-c4ccccc4Cl)oc23)[C@H](O)C1 [alvocidib]
How it was run: as §1

Tubastatin A = compound: CN1CCc2c(c3ccccc3n2Cc2ccc(C(=O)NO)cc2)C1 [Tubastatin A]
How it was run: as §1

[5] = compound: CNC(=O)C1=CC=CC=C1NC2=NC(=NC=C2Cl)NC3=C(C=C(C=C3)N4CCOCC4)OC
How it was run: as §1

defactinib = compound: CNC(=O)c1ccc(Nc2ncc(C(F)(F)F)c(NCc3nccnc3N(C)S(C)(=O)=O)n2)cc1 [defactinib]
How it was run: as §1

[6] = compound: CNc1nc(-c2ccc3c(N)n[nH]c3c2)cc(N2C[C@@H](C(=O)NC3CCCCC3)CC[C@H]2C)n1
How it was run: as §1

encorafenib = compound: COC(=O)N[C@@H](C)CNc1nccc(-c2cn(C(C)C)nc2-c2cc(Cl)cc(NS(C)(=O)=O)c2F)n1 [encorafenib]
How it was run: as §1

[7] = compound: COC(=O)[C@H](CCSC)NC(=O)C1=C(C=C(C=C1)NC[C@H](CS)N)C2=CC=CC=C2
How it was run: as §1

alisertib = compound: COc1cc(Nc2ncc3c(n2)-c2ccc(Cl)cc2C(c2c(F)cccc2OC)=NC3)ccc1C(=O)O [alisertib]
How it was run: as §1

gefitinib = compound: COc1cc2ncnc(Nc3ccc(F)c(Cl)c3)c2cc1OCCCN1CCOCC1 [gefitinib]
How it was run: as §1

[8] = compound: CCCS(=O)(=O)Nc1ccc(F)c(C(=O)c2c[nH]c3ncc(Cl)cc23)c1F
How it was run: as §1

volasertib = compound: CC[C@@H]1C(=O)N(C)c2cnc(Nc3ccc(C(=O)N[C@H]4CC[C@H](N5CCN(CC6CC6)CC5)CC4)cc3OC)nc2N1C(C)C [volasertib]
How it was run: as §1

[9] = compound: COc1cc2nc(-c3cc(F)ccc3O)nc(N[C@@H]3CNC[C@H]3C(C)(C)O)c2cc1OC
How it was run: as §1

Measured: log2 fold change

DNAL1 (UniProt Q4LDG9)
inactive: vemurafenib 0.026 | barasertib -0.103 | [1] 0.34 | [2] -0.03 | [3] 0.137 | [4] 0.042 | saracatinib 0.062 | sotrastaurin -0.013 | alvocidib -0.11 | Tubastatin A -0.148 | [5] -0.033 | defactinib -0.03 | [6] 0 | encorafenib -0.093 | [7] 0.045

DMBT1 isoform 6 (UniProt Q9UGM3)
inactive: vemurafenib 0.13 | [1] -1.9 | [3] 1.19 | [4] -1.75 | alvocidib -0.154 | defactinib -0.043 | encorafenib -0.229 | [7] 0.629 | alisertib -0.17 | gefitinib 0.023

DNAJB2 (UniProt P25686)
inactive: vemurafenib 0.158 | barasertib -0.075 | [1] 0.116 | [3] 0.005 | [4] 0.005 | saracatinib -0.012 | sotrastaurin -0.034 | alvocidib 0.006 | [5] -0.039 | defactinib -0.119 | [6] 0.025 | encorafenib 0.051 | [7] -0.009 | alisertib 0.113 | gefitinib -0.263

DGKE (UniProt P52429)
inactive: vemurafenib -0.11 | [1] 0.035 | [2] 0.007 | [3] -0.02 | [4] 0.209 | saracatinib -0.225 | alvocidib -0.049 | Tubastatin A 0.084 | [5] 0.052 | defactinib -0.002 | [6] -0.519 | encorafenib -0.238 | [7] 0.126

Copied from the results shown (three entries):
DNAL1 (UniProt Q4LDG9)
inactive: vemurafenib 0.026 | barasertib -0.103 | [1] 0.34 | [2] -0.03 | [3] 0.137 | [4] 0.042 | saracatinib 0.062 | sotrastaurin -0.013 | alvocidib -0.11 | Tubastatin A -0.148 | [5] -0.033 | defactinib -0.03 | [6] 0 | encorafenib -0.093 | [7] 0.045

DMBT1 isoform 6 (UniProt Q9UGM3)
inactive: vemurafenib 0.13 | [1] -1.9 | [3] 1.19 | [4] -1.75 | alvocidib -0.154 | defactinib -0.043 | encorafenib -0.229 | [7] 0.629 | alisertib -0.17 | gefitinib 0.023

DNAJB2 (UniProt P25686)
inactive: vemurafenib 0.158 | barasertib -0.075 | [1] 0.116 | [3] 0.005 | [4] 0.005 | saracatinib -0.012 | sotrastaurin -0.034 | alvocidib 0.006 | [5] -0.039 | defactinib -0.119 | [6] 0.025 | encorafenib 0.051 | [7] -0.009 | alisertib 0.113 | gefitinib -0.263

Additional records

DOT1L isoform 1 (UniProt Q8TEK3)
inactive: vemurafenib 0.052 | [1] 0.026 | saracatinib -0.035 | sotrastaurin -0.163 | [5] 0.253 | defactinib -0.02 | [6] -0.051 | encorafenib -0.105 | [7] -0.12

DHX36 (UniProt Q9H2U1)
inactive: vemurafenib 0.013 | [8] 0.016 | barasertib 0.019 | [1] -0.073 | volasertib -0.002 | [2] -0.069 | [3] -0.016 | [4] 0.027 | saracatinib 0.008 | sotrastaurin 0.005 | alvocidib 0.005 | Tubastatin A -0.027 | [5] 0.012 | defactinib -0.001 | [6] -0.02 | encorafenib -0.007 | [7] 0.03 | alisertib -0.003 | [9] 0 | gefitinib -0.015

DHRS4L1 (UniProt P0CG22)
inactive: vemurafenib -0.085 | [8] 0.01 | barasertib 0.014 | [1] 0.015 | volasertib -0.018 | [2] -0.058 | [3] 0.116 | [4] 0.049 | saracatinib 0.063 | sotrastaurin -0.052 | alvocidib 0.08 | Tubastatin A -0.021 | [5] 0.008 | defactinib -0.035 | [6] 0.223 | encorafenib -0.027 | [7] -0.02 | [9] 0.029

DIS3L2 (UniProt Q8IYB7)
inactive: vemurafenib 0.036 | [8] 0.055 | barasertib 0.069 | [1] -0.07 | volasertib -0.018 | [2] 0.046 | [3] -0.011 | [4] 0.013 | saracatinib 0.016 | sotrastaurin 0.09 | alvocidib 0.028 | Tubastatin A -0.1 | [5] 0.005 | defactinib -0.034 | [6] -0.08 | encorafenib 0.039 | [7] 0.103 | alisertib 0.005 | [9] 0.008 | gefitinib -0.017

DNAJC10 (UniProt Q8IXB1)
inactive: vemurafenib -0.012 | [8] 0.041 | barasertib 0.012 | [1] 0.002 | volasertib -0.036 | [2] 0.01 | [3] -0.034 | [4] 0.051 | saracatinib -0.004 | sotrastaurin 0 | alvocidib -0.034 | Tubastatin A 0.005 | [5] 0.015 | defactinib 0.035 | [6] 0.033 | encorafenib 0.012 | [7] 0.184 | alisertib -0.009 | [9] -0.009 | gefitinib -0.005

DNAH12 (UniProt Q6ZR08)
inactive: vemurafenib 0.083 | barasertib 0.074 | [3] -0.131 | [4] 0.264 | saracatinib 0.052 | alvocidib 0.016 | defactinib -0.134 | [6] -0.128

DGKQ (UniProt P52824)
inactive: vemurafenib 0.076 | [8] 0.096 | [1] 0.03 | volasertib -0.008 | [2] 0.031 | [3] -0.134 | [4] 0.071 | saracatinib 0 | alvocidib -0.018 | Tubastatin A -0.184 | [5] 0.069 | defactinib 0.018 | [6] 0.073 | encorafenib -0.19 | [7] -0.075 | alisertib -0.09 | [9] 0.038 | gefitinib 0.15

DNTTIP1 (UniProt Q9H147)
inactive: vemurafenib -0.048 | [8] 0.094 | [1] 0.073 | volasertib 0.036 | [3] 0.133 | [4] -0.157 | saracatinib 0.011 | alvocidib 0.14 | [5] 0.022 | defactinib 0.007 | [6] -0.184 | encorafenib 0.059 | [7] 0.011 | [9] 0.08

DNMT3B (UniProt Q9UBC3)
inactive: vemurafenib 0.196 | [1] -0.21 | [2] 0.003 | Tubastatin A -0.299 | defactinib 0.096 | encorafenib 0.243 | [7] -0.174 | alisertib -0.28 | gefitinib 0.061

DNAJC24 (UniProt Q6P3W2)
inactive: vemurafenib 0.141 | [8] -0.038 | [1] 0.017 | volasertib 0.027 | [2] 0.002 | [3] 0.196 | saracatinib -0.013 | sotrastaurin -0.032 | alvocidib 0.079 | Tubastatin A 0.001 | [5] -0.017 | defactinib 0.009 | [6] -0.088 | encorafenib 0.037 | [7] -0.027 | alisertib -0.017 | [9] -0.006 | gefitinib -0.038
active: [4] -0.309
